These results are taken from paper PMC7254050.

Chains of the proteins cited; added tags and fusions are not shown.
UniProt Q8TDG2: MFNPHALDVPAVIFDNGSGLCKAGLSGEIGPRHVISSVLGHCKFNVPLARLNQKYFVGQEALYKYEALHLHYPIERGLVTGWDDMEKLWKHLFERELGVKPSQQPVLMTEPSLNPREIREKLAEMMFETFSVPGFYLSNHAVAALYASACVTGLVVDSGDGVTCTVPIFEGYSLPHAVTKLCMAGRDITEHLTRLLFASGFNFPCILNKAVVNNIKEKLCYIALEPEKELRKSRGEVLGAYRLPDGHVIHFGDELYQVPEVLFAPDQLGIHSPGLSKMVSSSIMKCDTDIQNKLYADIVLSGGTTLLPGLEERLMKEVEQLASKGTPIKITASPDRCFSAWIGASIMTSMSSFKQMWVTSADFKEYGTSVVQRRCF
UniProt P35579: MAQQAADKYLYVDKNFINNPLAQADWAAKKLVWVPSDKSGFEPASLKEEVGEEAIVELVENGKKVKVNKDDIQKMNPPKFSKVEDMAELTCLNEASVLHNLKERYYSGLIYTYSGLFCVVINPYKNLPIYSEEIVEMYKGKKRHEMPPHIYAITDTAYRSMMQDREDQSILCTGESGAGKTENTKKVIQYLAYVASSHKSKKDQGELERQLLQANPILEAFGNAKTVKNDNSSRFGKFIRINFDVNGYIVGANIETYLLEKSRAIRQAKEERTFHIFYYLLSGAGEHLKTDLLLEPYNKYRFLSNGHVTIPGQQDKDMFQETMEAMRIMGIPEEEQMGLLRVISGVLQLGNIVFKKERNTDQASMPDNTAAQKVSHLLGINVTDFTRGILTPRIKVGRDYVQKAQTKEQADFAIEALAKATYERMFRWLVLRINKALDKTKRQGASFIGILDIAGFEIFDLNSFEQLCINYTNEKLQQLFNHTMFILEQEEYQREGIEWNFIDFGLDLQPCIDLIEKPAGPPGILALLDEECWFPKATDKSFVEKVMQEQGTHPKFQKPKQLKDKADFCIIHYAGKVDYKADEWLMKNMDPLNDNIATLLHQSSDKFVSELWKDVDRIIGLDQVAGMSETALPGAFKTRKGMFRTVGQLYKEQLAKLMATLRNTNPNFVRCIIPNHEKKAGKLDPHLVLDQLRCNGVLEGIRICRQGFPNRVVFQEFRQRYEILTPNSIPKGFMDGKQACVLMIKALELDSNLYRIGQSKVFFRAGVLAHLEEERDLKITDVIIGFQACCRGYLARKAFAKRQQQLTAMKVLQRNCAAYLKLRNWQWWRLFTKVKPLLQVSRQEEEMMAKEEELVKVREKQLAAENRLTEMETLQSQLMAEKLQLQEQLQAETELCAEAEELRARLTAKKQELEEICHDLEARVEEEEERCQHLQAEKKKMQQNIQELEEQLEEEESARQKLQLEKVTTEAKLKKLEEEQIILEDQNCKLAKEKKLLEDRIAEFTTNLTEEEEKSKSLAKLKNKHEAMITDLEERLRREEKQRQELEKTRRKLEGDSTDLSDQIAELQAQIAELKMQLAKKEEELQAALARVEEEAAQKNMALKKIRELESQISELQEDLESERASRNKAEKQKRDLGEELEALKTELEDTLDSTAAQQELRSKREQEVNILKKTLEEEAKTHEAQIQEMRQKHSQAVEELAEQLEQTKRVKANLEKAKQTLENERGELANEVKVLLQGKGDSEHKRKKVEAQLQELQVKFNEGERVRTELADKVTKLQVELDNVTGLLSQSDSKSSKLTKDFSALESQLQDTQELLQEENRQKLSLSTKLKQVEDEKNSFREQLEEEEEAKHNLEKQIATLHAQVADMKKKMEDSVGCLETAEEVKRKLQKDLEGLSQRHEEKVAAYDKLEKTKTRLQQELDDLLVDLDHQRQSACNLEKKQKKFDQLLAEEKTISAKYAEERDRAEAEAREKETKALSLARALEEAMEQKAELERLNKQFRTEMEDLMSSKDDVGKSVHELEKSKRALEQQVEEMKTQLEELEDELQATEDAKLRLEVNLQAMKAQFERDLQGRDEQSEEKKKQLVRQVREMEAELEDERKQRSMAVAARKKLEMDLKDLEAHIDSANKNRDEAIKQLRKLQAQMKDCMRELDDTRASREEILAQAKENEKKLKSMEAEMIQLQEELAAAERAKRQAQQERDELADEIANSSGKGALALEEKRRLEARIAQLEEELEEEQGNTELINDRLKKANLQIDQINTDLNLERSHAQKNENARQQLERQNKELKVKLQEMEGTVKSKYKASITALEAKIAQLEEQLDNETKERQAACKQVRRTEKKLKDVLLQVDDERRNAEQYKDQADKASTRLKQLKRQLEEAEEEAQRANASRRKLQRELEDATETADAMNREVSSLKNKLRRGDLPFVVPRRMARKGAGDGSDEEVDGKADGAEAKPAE
UniProt Q6S8J3: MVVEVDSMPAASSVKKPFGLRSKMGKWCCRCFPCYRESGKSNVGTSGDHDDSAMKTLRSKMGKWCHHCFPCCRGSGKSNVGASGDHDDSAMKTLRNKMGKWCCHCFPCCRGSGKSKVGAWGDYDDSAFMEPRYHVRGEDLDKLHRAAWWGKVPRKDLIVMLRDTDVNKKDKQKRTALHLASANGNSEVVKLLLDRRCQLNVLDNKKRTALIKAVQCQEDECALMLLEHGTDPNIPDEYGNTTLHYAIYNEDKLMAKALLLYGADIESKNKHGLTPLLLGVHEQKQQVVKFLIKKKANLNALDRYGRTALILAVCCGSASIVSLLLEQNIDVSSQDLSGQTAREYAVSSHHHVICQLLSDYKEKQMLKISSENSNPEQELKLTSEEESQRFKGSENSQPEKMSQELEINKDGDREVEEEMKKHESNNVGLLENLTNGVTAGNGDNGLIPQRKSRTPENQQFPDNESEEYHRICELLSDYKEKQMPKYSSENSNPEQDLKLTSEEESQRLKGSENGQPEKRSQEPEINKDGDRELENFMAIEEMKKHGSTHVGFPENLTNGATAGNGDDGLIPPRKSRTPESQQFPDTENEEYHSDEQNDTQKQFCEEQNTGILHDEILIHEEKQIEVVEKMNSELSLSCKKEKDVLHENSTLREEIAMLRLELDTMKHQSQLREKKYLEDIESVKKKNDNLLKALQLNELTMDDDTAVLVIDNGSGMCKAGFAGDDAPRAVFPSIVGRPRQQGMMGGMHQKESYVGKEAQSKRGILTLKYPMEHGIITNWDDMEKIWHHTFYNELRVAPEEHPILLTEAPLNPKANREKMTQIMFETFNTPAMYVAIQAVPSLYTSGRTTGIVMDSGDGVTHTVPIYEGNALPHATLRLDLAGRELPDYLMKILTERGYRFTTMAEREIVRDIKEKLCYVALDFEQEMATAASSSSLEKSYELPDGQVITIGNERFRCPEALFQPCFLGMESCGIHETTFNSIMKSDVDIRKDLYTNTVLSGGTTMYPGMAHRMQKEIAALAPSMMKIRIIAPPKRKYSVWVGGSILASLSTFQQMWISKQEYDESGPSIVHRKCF
UniProt A5A3E0: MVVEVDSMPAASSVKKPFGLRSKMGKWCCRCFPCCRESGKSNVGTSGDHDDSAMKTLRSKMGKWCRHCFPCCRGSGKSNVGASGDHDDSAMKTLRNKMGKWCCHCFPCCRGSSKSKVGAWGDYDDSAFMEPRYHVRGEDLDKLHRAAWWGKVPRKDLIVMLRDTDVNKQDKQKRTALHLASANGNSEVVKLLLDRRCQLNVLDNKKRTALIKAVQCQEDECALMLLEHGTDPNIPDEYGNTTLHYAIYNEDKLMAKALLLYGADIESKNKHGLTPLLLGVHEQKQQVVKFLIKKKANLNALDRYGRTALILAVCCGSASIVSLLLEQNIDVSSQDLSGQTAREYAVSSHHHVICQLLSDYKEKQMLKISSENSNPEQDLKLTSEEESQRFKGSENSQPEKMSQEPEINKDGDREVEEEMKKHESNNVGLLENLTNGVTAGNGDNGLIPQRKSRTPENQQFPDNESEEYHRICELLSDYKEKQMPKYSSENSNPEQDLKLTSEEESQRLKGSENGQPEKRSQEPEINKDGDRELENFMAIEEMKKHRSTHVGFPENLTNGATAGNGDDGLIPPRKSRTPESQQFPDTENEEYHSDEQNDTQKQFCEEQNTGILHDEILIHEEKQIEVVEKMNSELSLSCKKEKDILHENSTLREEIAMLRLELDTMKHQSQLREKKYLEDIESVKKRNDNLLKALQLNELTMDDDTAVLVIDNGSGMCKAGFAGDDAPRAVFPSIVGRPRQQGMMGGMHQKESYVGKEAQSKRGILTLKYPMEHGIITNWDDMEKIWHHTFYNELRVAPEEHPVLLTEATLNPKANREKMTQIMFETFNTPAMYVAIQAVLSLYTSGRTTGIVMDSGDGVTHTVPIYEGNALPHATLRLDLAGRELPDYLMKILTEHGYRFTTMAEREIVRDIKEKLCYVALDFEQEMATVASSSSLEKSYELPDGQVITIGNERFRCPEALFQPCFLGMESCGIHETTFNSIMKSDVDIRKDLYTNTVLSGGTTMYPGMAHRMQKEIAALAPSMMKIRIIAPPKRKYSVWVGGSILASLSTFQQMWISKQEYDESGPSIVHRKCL

These are yes or no findings as the source states them, for the method shown. Binding seen in cells or lysates may run through a third protein. Here binding means that the protein was enriched with, or labelled near, the bait; the list need not be complete.

The labels stand for the following.
T1: Hyaluronidase (HYAL)-2 (human (endogenous in human lung fibroblasts AG02262)) (UniProt Q12891)
T1 sequence: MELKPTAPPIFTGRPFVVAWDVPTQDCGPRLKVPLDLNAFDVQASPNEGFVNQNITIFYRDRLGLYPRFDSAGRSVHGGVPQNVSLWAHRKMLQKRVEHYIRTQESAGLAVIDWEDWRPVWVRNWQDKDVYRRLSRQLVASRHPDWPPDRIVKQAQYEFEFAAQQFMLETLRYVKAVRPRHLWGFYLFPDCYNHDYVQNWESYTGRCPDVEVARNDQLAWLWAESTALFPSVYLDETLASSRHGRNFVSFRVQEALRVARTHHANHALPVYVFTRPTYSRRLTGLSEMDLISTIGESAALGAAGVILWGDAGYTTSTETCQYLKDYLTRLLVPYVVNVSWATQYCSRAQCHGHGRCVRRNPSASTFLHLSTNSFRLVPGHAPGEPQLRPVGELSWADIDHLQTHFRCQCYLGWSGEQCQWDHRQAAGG

B1: Nebulin-related-LIM/SH3 domain protein 1 (protein, UniProt Q14847 1-261)
chain: MNPNCARCGKIVYPTEKVNCLDKFWHKACFHCETCKMTLNMKNYKGYEKKPYCNAHYPKQSFTMVADTPENLRLKQQSELQSQVRYKEEFEKNKGKGFSVVADTPELQRIKKTQDQISNIKYHEEFEKSRMGPSGGEGMEPERRDSQDGSSYRRPLEQQQPHHIPTSAPVYQQPQQQPVAQSYGGYKEPAAPVSIQRSAPGGGGKRYRAVYDYSAADEDEVSFQDGDTIVNVQQIDDGWMYGTVERTGDTGMLPANYVEAI

This assay addresses T1, Hyaluronidase (HYAL)-2 (human (endogenous in human lung fibroblasts AG02262)). Description: affinity purification with mass spectrometry; anti-HYAL2 co-immunoprecipitation eluates of myofibroblasts run on a 7.5% polyacrylamide gel, gel plugs digested with trypsin, MALDI TOF/TOF, Mascot search restricted to human.
Take “Actin-related protein T1 (from UniProt Q8TDG2 1-376)”: the binding result is given as “binds”. For “Myosin-9 (NMMHCIIA) (from UniProt P35579 1-1960)” the value was “binds”; for “POTE ankyrin domain family member E (from UniProt Q6S8J3 1-1075)”, “binds”. Take “POTE ankyrin domain family member F (from UniProt A5A3E0 1-1075)”: the binding entry is given as “binds”. Regarding Vinculin (from UniProt P18206-2), the binding result was “binds”. For B1, the binding entry is recorded as “binds”.
